For some assays here: Some peptides are written in HELM: one residue between dots, names in brackets for other building blocks, links after the first $.
Legend:
[1] = Fmoc solid-phase peptide synthesis; Fmoc-Phe-Wang (TFF3_36-59); 2-chlorotrityl hydrazide resin (TFF3_1-35-NHNH2); Rink amide Protide resin (TFF3_10-50, TFF3); DIC/Oxyma Pure; settings: whole synthesis, scale of the general procedure 0.1 mmol
[2] = general procedure: Fmoc solid-phase peptide synthesis; Fmoc-Phe-Wang (TFF3_36-59); 2-chlorotrityl hydrazide resin (TFF3_1-35-NHNH2); Rink amide Protide resin (TFF3_10-50, TFF3); DIC/Oxyma Pure; settings: conjugation step

Substance	outcome [1]	conjugation yield [2]
TFF3_1-59 (EEYVGLSANQCAVPAKDRVDCGYPHVTPKECNNRGCCFDSRIPGVPWCFKPLQEAECTF; three intrachain disulfide bonds (Cys^I-V, Cys^II-IV, Cys^III-VI); Cys^57 (Cys^VII) free)	Single-chain assembly of full-length TFF3_1-59 was not successful due to difficult sequence sections	
PEPTIDE1{E.E.Y.V.G.L.S.A.N.Q.C.A.V.P.A.K.D.R.V.D.C.G.Y.P.H.V.T.P.K.E.C.N.N.R.G.C.C.F.D.S.R.I.P.G.V.P.W.C.F.K.P.L.Q.E.A.E.C.T.F}|PEPTIDE2{E.E.Y.V.G.L.S.A.N.Q.C.A.V.P.A.K.D.R.V.D.C.G.Y.P.H.V.T.P.K.E.C.N.N.R.G.C.C.F.D.S.R.I.P.G.V.P.W.C.F.K.P.L.Q.E.A.E.C.T.F}$PEPTIDE1,PEPTIDE1,11:R3-37:R3|PEPTIDE1,PEPTIDE1,21:R3-36:R3|PEPTIDE1,PEPTIDE1,31:R3-48:R3|PEPTIDE2,PEPTIDE2,11:R3-37:R3|PEPTIDE2,PEPTIDE2,21:R3-36:R3|PEPTIDE2,PEPTIDE2,31:R3-48:R3|PEPTIDE1,PEPTIDE2,57:R3-57:R3$$$V2.0		∼60%

From PMC8273887 (Journal of Medicinal Chemistry, 2021)
